Source: PubChem BioAssay AID1224853 (National Center for Advancing Translational Sciences (NCATS), 2016)
This list was built around the results that the source calls inconclusive (neither active nor inactive); the mix of calls is not that of the screen. A potency beside an inconclusive call is a rough fit, not a confirmed value. The source made the active and inactive calls. The call rests on the fitted dose curve; in most records, active means well fitted inhibition curve with a large enough effect; inconclusive means small, poorly fitted or top-dose-only effect; inactive means no such curve, though single readings can be large or run the other way.

Experiment: Confirmation assay for measurement of the activity of small molecule inhibitors on Zika virus induced Caspase-3 activity in human astrocytoma cells
Conditions: SNB-19 ZIKV-induced caspase-3/7, luminescence, 6 h; series mostly up to 46.1 µM
From the text: National Center for Advancing Translational Sciences [NCATS] Johns Hopkins University School of Medicine Florida State University Assay Overview: Increase in the Caspase-3 activity indicates an activation of apoptosis cell death pathway caused by Zika virus infection in certain types of neuronal cells including human neural progenitor cells (hNPCs), astrocytes, and astrocytoma cell line (SNB-19). This cell-based caspase-3 activity assay measures the increased caspase-3 activity in the astrocytoma cell line (SNB-19) after a 6-hour Zika virus infection with a luminescence readout. A decrease in the luminescence signal in this assay by small molecule treatment indicates an inhibitory effect of that small molecule on the Zika virus induced caspase-3 activity that may correlate with its effect on reduction of Zika virus caused cell death.
Assay Protocol Summary: The medium for SNB-19 cells is composed of RPMI 1640 (ATCC, Cat.# 30-2001), 10% fetal bovine serum (FBS) (GE healthcare Life Sciences, Cat.# SH30071.03), and 1% Pen/Strep (Gibco, Cat.# 15140-122). A Caspase-Glo 3/7 assay kit (catalog number G8092; Promega, Madison, WI) was used to detect caspase-3 activity induced by Zika virus infection in human cells. The reagent mixture was reconstituted as described in the protocol from the manufacturer. Polystyrene tissue culture treated and PDL coated white plates were obtained from Greiner Bio-One (Monroe, NC). Cells were seeded in 384- or 1536-well assay plates and cultured at 37 C with 5% CO2 for 16 to 20 hours. The typical cell seeding density in the 1536-well plate assay is 250 cells/well in 3ul medium for SNB-19 cells in tissue culture treated plates. Compounds were added to cells and incubated for one hour before addition of ZIKV solution to cells (2 FFU/cell). After incubation at 37 C with 5% CO2 for 6 hours, the reagent mixture of Caspase-Glo 3/7 assay kit was added to each well, followed by incubation at room temperature for 30 minutes. The luminescence intensity of the assay plates was measured using a ViewLux plate reader (PerkinElmer). Data were normalized by using the cell-containing wells without ZIKV as a negative control (0% induction of caspase 3/7 activity) and wells containing ZIKV infected cells (Caspase-3 activity induced) as a positive control (100% induction of caspase 3 activity). The percentage inhibitions of the increased Caspase-3 activity by small molecule inhibitors were then calculated.

Row | Compound | Potency
1 | O=c1oc2cc(O)ccc2s1 | inconclusive: 27.5 µM [inhibitor, partial curve, poor fit]
2 | [O-][n+]1ccccc1SSc1cccc[n+]1[O-] | inconclusive: 0.0891 µM [inhibitor, full curve, poor fit]
3 | COc1cccc(-c2ccc(NC(=O)C3=C(C(=O)O)CCC3)c(F)c2)c1 | active: 3.46 µM
4 | CC1(C)OC2=C(C(=O)c3ccccc3C2=O)[C@H](NCc2ccccc2)[C@H]1O | inconclusive: 31.6 µM [inhibitor, single point]
5 | CC(C)(C)OC(=O)CN(Cc1ccc(Cl)cc1)Cc1ccc([N+](=O)[O-])s1 | inactive
6 | CC(=Cc1ccccc1)C=C1SC(=S)N(CC(=O)O)C1=O | inconclusive: 19.5 µM [inhibitor, partial curve, poor fit]
7 | CCCCCCCCCCCC(=O)[O][Sn]([CH2]CCC)([CH2]CCC)[O]C(=O)CCCCCCCCCCC | inactive
8 | CCN(CC)c1ccc(C(=C2C=CC(=[N+](CC)CC)C=C2)c2cc(S(=O)(=O)O)ccc2S(=O)(=O)[O-])cc1 | inconclusive: 19.5 µM [inhibitor, partial curve]
9 | O=C(C=CC=Cc1ccc2c(c1)OCO2)N1CCCCC1 | active: 19.5 µM
10 | CC(C)(C)COc1ccc(-n2cc(C(=O)O)cn2)cc1C#N | active: 25.1 µM

2 compounds picked at random from those above, as already listed:
Row | Compound | Potency
4 | CC1(C)OC2=C(C(=O)c3ccccc3C2=O)[C@H](NCc2ccccc2)[C@H]1O | inconclusive: 31.6 µM [inhibitor, single point]
6 | CC(=Cc1ccccc1)C=C1SC(=S)N(CC(=O)O)C1=O | inconclusive: 19.5 µM [inhibitor, partial curve, poor fit]
